Patent US5326786A, “5,6,7,9-tetrahydro-1,2,3-trimethoxy-9-oxobenzo[alpha]heptalene derivative and pharmaceutical use” (Ohgen Research Laboratories Ltd., priority 1992, dated 1994)
≈ marks a conversion by molar mass, not a printed value.

What was measured:
[1] = system: adriamycin-resistant mouse leukemic cells p388/ADR; assay: In vitro cancer cell proliferation inhibiting test (1); assay type: cell-based; conditions: 48 h, read-out: IC50 (50% proliferation inhibitory concentration), P388/ADR
Procedure: (§1) (1) 10^6 each of mouse leukemic cells p388/S and adriamycin-resistant mouse leukemic cells p388/ADR are suspended in RPMI 1640 media each containing 10% fetal bovine serum, respectively, and cultured for 2 days in the presence of a test compound (this was used after it was dissolved in dimethylsulfoxide to 1 mg/ml and the solution was diluted with a phosphate buffer). The influence of the test compound on cell proliferation was investigated, and 50% proliferation inhibitory concentration:IC50 value (μg/ml) was determined.

[2] = system: p388/S mouse leukemic cells; assay: as above; assay type: cell-based; conditions: 48 h, read-out: IC50 (50% proliferation inhibitory concentration), p388/S
Procedure: as §1

Work on `COc1cc2c(c(OC)c1OC)-c1ccc(OC)c(=O)cc1[C@@H](NC(C)=O)CC2` [Colchicine, colchicine, reference compound] yielded an IC50 [1] of 0.48 µg/mL (≈ 1.2 µM) and an IC50 [2] of 0.0041 µg/mL (≈ 0.0103 µM).
